Laboratory results published in patent publication US20180036302A1, “TREATMENT OF MULTIPLE SCLEROSIS WITH COMBINATION OF LAQUINIMOD AND A STATIN” (Teva Pharmaceutical Industries Ltd., priority 2014, published 2018).

Assay: in vivo
Conditions: male, C57BL/6, mouse, po, 50 mg/kg
Experimental: For all PO administration groups: 1% MC in water (all PO formulations were made just prior to use).
Fasted overnight and fed 4 hr post dose, free access to water
• 1. For plasma samples: An aliquot of 30 μL plasma sample was added with 150 μL ACN which contains IS (Dexamethasane 40 ng/mL, 5 ng/mL) for protein precipitation. The mixture was vortexed for 2 rain and centrifuged at 12000 rpm for 5 min. The 2 μL supernatant was injected into LC-MS/MS. • 2. For diluted plasma samples: An aliquot of 10 μL plasma sample was added with 90 μL blank plasma to obtain the diluted plasma samples, and the sample dilution factor is 10. An aliquot of 10 μL 10-folder-diluted plasma sample was added with 40 μL blank plasma to obtain the diluted plasma samples, and the sample dilution factor is 50. The exaction procedure for diluted samples was same as those for non-diluted samples.
The animals were restrained manually at the designated time points. Approx. 150 μL of blood samples were taken from the animals into K2EDTA tubes via retro-orbital puncture or cardiac puncture for terminal bleeding under anesthesia with Isoflurane. Blood sample was put on ice and centrifuged at 2000 g for 5 min (4° C.) to obtain plasma sample within 15 minutes. Plasma samples were snap frozen by placing into dry-ice.
The plasma samples were stored at approximately −70° C. until analysis. The backup samples are discarded after two months unless specified. The unused dosing solutions are discarded within 1 week after completion of the study.

With CC(C)c1c(C(=O)Nc2ccccc2)c(-c2ccccc2)c(-c2ccc(F)cc2)n1CC[C@@H](O)C[C@@H](O)CC(=O)O [Atorvastatin, atorvastatin] the AUCINF was 330 ng·h/mL, the AUClast was 317 ng·h/mL and the AUC(0-inf) (AUCINF) was 268 ng·h/mL. It also gave an AUC(0-t) (AUClast) of 258 ng·h/mL, a Cmax (Cmax) of 361 ng/mL and a Tmax (Tmax) of 15 min.
